Test results: the supplement of paper PMC10849652
The other results are listed elsewhere or left out.

Amino acid sequences for entries named in this document (tags omitted). A change or cut given only in a name is not applied to a line headed by its entry.
UniProt Q8WUF8: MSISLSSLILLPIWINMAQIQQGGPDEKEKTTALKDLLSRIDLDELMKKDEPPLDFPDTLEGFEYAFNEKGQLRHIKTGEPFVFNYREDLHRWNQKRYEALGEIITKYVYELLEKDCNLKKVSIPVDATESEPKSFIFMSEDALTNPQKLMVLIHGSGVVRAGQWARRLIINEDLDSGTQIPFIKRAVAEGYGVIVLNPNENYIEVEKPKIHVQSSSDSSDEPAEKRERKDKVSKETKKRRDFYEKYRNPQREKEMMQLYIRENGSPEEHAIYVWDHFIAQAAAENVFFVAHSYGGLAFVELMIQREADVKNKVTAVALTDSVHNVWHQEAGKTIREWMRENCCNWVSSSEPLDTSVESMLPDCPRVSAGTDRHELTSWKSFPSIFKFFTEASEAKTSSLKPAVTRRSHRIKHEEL
UniProt Q9H790: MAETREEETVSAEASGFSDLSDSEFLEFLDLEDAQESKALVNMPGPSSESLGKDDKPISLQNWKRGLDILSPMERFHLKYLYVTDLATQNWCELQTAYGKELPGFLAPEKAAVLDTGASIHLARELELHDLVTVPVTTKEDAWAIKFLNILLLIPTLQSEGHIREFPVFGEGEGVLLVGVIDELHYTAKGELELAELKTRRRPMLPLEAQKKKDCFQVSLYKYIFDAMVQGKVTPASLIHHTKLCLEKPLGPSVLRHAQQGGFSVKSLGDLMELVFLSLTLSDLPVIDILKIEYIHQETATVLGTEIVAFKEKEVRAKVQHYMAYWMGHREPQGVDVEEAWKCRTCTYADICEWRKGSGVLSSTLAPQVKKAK
UniProt Q6NZ36: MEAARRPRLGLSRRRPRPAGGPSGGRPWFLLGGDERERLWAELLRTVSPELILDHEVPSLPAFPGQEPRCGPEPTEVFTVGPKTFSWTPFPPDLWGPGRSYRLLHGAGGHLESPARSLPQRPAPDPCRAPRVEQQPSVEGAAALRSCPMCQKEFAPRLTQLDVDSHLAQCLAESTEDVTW
UniProt Q9BVV8: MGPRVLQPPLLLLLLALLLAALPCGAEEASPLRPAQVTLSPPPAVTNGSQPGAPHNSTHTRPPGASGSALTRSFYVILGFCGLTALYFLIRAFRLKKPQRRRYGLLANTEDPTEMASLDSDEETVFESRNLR
UniProt Q9NYK6: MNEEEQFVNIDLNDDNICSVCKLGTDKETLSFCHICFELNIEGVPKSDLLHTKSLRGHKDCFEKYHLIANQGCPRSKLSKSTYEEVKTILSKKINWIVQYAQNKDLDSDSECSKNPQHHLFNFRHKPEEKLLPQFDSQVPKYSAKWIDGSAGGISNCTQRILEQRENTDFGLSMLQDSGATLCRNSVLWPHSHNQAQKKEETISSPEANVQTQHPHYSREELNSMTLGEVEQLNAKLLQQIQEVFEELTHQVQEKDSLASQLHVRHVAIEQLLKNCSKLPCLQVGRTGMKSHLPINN
UniProt Q5XKK7: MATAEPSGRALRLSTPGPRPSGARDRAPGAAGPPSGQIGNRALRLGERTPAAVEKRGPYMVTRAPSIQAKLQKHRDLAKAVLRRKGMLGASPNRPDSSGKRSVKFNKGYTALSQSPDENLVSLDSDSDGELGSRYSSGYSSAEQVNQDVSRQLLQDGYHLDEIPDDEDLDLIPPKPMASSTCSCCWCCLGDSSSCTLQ
UniProt A2RU67: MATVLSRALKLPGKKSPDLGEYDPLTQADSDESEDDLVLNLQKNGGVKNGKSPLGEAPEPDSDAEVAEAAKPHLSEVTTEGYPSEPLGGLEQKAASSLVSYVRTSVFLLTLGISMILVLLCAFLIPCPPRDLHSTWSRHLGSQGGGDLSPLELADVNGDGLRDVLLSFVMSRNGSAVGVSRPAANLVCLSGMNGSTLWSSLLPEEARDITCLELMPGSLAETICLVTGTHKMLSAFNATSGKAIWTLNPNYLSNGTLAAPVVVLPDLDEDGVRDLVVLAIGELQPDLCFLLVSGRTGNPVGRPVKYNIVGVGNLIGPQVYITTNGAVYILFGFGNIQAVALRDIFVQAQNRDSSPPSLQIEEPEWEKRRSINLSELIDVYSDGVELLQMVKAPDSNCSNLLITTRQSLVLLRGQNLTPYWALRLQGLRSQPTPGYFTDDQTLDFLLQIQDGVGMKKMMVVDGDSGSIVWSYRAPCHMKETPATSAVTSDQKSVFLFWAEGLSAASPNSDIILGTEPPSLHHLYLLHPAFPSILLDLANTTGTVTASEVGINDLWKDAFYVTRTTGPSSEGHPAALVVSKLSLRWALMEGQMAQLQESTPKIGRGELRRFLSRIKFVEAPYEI
UniProt P25116: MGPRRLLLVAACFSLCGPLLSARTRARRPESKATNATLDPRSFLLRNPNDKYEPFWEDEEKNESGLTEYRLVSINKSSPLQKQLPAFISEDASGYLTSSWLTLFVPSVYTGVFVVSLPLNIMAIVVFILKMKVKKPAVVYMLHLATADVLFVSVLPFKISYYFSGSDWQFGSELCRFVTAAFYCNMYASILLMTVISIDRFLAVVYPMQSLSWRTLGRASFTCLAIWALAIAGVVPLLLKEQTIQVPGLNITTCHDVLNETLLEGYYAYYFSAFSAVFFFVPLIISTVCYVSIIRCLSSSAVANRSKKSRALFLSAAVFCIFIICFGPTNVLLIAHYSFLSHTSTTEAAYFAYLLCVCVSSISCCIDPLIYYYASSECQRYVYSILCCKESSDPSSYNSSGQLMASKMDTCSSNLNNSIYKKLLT
UniProt Q96PZ2, whole entry, looked up: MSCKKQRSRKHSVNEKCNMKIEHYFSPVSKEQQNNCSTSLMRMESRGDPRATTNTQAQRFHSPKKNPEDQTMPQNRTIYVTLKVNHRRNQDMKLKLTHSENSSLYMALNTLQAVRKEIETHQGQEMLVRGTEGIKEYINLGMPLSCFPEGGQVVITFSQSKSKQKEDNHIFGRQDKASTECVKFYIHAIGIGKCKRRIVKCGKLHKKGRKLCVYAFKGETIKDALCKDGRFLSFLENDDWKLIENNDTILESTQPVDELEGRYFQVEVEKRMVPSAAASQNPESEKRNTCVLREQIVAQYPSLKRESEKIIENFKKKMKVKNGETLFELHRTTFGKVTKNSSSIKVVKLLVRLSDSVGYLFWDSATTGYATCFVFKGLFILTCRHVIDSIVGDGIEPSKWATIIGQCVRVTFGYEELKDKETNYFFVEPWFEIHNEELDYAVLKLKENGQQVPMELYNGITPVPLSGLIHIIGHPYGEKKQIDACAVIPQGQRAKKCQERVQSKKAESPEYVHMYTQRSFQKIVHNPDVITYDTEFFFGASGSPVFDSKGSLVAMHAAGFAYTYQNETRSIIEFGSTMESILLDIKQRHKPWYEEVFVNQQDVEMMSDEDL
UniProt Q5VUB5: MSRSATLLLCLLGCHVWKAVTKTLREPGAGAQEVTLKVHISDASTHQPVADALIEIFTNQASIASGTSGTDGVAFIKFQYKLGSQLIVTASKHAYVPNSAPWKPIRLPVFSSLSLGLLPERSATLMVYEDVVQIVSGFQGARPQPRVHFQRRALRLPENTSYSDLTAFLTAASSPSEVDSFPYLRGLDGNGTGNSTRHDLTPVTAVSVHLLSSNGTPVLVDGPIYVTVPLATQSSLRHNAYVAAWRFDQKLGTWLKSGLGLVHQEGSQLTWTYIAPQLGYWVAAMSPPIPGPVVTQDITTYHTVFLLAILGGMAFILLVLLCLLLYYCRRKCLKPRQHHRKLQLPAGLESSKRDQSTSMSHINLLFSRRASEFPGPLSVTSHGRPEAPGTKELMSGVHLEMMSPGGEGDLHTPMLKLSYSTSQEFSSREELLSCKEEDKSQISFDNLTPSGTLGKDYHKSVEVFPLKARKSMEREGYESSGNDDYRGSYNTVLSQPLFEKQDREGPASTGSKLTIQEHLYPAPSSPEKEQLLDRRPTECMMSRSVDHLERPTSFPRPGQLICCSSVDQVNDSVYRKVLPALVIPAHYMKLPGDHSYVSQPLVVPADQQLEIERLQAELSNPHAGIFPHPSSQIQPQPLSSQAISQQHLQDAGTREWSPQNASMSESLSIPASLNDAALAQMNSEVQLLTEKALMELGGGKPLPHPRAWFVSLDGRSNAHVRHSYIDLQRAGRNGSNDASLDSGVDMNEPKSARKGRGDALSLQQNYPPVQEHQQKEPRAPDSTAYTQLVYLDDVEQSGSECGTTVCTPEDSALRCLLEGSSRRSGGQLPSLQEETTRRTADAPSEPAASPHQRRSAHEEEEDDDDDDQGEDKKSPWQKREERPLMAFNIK
UniProt P41162: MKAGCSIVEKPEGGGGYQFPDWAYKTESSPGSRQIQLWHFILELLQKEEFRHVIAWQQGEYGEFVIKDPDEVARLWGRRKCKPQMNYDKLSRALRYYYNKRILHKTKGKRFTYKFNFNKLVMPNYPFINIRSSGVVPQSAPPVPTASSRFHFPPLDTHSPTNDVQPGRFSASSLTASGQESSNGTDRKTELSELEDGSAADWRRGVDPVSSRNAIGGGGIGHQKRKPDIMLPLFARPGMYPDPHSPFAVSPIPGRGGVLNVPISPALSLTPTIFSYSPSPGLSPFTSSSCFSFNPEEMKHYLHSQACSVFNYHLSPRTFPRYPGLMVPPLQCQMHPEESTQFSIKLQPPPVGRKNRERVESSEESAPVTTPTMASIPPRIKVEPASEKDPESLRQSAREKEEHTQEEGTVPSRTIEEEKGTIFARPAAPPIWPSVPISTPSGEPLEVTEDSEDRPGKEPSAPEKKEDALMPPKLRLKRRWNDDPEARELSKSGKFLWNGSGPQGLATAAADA
UniProt P50549: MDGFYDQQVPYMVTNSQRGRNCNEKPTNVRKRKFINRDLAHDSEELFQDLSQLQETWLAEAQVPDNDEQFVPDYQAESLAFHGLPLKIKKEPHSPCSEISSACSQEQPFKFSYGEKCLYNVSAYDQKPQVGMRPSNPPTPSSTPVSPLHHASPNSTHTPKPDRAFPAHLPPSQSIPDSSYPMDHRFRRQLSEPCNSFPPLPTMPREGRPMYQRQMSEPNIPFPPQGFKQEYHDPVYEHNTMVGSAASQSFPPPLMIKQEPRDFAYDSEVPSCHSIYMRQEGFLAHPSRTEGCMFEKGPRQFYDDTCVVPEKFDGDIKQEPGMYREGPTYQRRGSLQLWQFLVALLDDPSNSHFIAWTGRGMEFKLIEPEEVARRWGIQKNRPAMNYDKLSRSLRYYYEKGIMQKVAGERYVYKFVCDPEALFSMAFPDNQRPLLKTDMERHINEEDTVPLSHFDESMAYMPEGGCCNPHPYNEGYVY
UniProt Q6PEV8: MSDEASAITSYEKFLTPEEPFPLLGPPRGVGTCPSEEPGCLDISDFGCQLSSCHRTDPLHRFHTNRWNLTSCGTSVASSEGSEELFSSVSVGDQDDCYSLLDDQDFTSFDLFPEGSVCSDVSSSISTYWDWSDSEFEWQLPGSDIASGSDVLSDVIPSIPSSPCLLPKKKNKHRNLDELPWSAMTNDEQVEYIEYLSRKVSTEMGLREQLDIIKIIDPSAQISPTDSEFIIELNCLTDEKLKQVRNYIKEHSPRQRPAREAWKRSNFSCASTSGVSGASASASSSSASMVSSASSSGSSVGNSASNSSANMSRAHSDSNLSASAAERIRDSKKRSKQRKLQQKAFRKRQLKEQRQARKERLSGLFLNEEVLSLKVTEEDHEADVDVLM
UniProt Q9NY74: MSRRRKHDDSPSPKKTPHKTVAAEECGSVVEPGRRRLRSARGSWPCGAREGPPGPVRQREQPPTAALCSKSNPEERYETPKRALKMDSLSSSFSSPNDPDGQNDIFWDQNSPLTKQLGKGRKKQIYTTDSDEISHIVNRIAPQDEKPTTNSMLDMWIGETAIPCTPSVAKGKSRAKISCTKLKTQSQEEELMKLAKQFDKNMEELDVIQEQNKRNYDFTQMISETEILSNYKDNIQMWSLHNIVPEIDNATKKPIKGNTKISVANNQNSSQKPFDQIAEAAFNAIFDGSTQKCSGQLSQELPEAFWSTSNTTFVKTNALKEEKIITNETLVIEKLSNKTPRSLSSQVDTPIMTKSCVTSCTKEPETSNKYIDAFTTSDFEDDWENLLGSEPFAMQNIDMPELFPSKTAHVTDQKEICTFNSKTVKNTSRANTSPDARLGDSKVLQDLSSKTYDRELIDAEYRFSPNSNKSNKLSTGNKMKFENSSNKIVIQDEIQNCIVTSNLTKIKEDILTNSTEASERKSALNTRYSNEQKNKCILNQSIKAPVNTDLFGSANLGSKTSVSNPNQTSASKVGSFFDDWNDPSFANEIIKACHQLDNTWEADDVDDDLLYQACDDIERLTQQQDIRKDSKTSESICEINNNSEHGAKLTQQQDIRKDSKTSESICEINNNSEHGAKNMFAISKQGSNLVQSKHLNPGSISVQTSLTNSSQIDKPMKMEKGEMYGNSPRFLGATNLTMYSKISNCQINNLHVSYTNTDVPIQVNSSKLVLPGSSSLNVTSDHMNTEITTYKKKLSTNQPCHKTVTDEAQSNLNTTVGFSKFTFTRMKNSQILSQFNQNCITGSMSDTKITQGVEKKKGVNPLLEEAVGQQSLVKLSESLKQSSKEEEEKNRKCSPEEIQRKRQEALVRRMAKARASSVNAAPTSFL

Legend:
Assay in all cases: log2 fold change, soluble protein after heating vs DMSO (PISA); higher = thermal stabilisation; K562 lysate, 10 uM; active = over 0.2 and 3.5 SD of the protein, either way, in both replicates (recomputed)
alvocidib = compound: CN1CC[C@H](c2c(O)cc(O)c3c(=O)cc(-c4ccccc4Cl)oc23)[C@H](O)C1 [alvocidib]
Method in brief: (§1)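 Soluble protein was defined as the supernatant remaining after 21,000xg for 90 min, following pooling of heated aliquots and adjustment to 0.5% NP-40 at 4°C. Before that, crude K562 extract at 1 mg/mL protein in PBS pH 7.4 with 1 mM MgCl2 was treated with 10 μM compound for 30 min and heated for 3 min across 48°C-58°C. Quantification used TMTpro 16plex LC-MS/MS with channel sums equalised, and values are log-two fold changes in thermal stability relative to solvent controls from duplicates.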

[1] = compound: CNC(=O)C1=CC=CC=C1NC2=NC(=NC=C2Cl)NC3=C(C=C(C=C3)N4CCOCC4)OC
Method in brief: as §1

defactinib = compound: CNC(=O)c1ccc(Nc2ncc(C(F)(F)F)c(NCc3nccnc3N(C)S(C)(=O)=O)n2)cc1 [defactinib]
Method in brief: as §1

encorafenib = compound: COC(=O)N[C@@H](C)CNc1nccc(-c2cn(C(C)C)nc2-c2cc(Cl)cc(NS(C)(=O)=O)c2F)n1 [encorafenib]
Method in brief: as §1

[2] = compound: COC(=O)[C@H](CCSC)NC(=O)C1=C(C=C(C=C1)NC[C@H](CS)N)C2=CC=CC=C2
Method in brief: as §1

alisertib = compound: COc1cc(Nc2ncc3c(n2)-c2ccc(Cl)cc2C(c2c(F)cccc2OC)=NC3)ccc1C(=O)O [alisertib]
Method in brief: as §1

[3] = compound: COc1cc2nc(-c3cc(F)ccc3O)nc(N[C@@H]3CNC[C@H]3C(C)(C)O)c2cc1OC
Method in brief: as §1

gefitinib = compound: COc1cc2ncnc(Nc3ccc(F)c(Cl)c3)c2cc1OCCCN1CCOCC1 [gefitinib]
Method in brief: as §1

lapatinib = compound: CS(=O)(=O)CCNCc1ccc(-c2ccc3ncnc(Nc4ccc(OCc5cccc(F)c5)c(Cl)c4)c3c2)o1 [lapatinib]
Method in brief: as §1

pictilisib = compound: CS(=O)(=O)N1CCN(Cc2cc3nc(-c4cccc5[nH]ncc45)nc(N4CCOCC4)c3s2)CC1 [pictilisib]
Method in brief: as §1

crizotinib = compound: C[C@@H](Oc1cc(-c2cnn(C3CCNCC3)c2)cnc1N)c1c(Cl)ccc(F)c1Cl [crizotinib]
Method in brief: as §1

[4] = compound: C[C@H](C1=CC=C(C=C1)C(=O)NC2=C3C=CNC3=NC=C2)N
Method in brief: as §1

gandotinib = compound: Cc1cc(Nc2cc(CN3CCOCC3)c3nc(C)c(Cc4ccc(Cl)cc4F)n3n2)n[nH]1 [gandotinib]
Method in brief: as §1

tozasertib = compound: Cc1cc(Nc2cc(N3CCN(C)CC3)nc(Sc3ccc(NC(=O)C4CC4)cc3)n2)n[nH]1 [tozasertib]
Method in brief: as §1

doramapimod = compound: Cc1ccc(-n2nc(C(C)(C)C)cc2NC(=O)Nc2ccc(OCCN3CCOCC3)c3ccccc23)cc1 [doramapimod]
Method in brief: as §1

bafetinib = compound: Cc1ccc(NC(=O)c2ccc(CN3CC[C@H](N(C)C)C3)c(C(F)(F)F)c2)cc1Nc1nccc(-c2cncnc2)n1 [bafetinib]
Method in brief: as §1

[5] = compound: Cc1cccc(CC(=O)N2CCc3c2ccc(-c2cn(C)c4ncnc(N)c24)c3F)n1
Method in brief: as §1

Tubastatin A = compound: CN1CCc2c(c3ccccc3n2Cc2ccc(C(=O)NO)cc2)C1 [Tubastatin A]
Method in brief: as §1

[6] = compound: CNc1nc(-c2ccc3c(N)n[nH]c3c2)cc(N2C[C@@H](C(=O)NC3CCCCC3)CC[C@H]2C)n1
Method in brief: as §1

duvelisib = compound: C[C@H](Nc1ncnc2nc[nH]c12)c1cc2cccc(Cl)c2c(=O)n1-c1ccccc1 [duvelisib]
Method in brief: as §1

## FAM193A, A0A1B0GVL4
alvocidib
  log2 fold change: inactive: 0.042
[1]
  log2 fold change: inactive: 0.141
defactinib
  log2 fold change: inactive: 0.121
encorafenib
  log2 fold change: inactive: 0.138
[2]
  log2 fold change: inactive: -0.044
alisertib
  log2 fold change: inactive: -0.021
[3]
  log2 fold change: inactive: 0.013
gefitinib
  log2 fold change: inactive: 0.006
lapatinib
  log2 fold change: inactive: -0.004
pictilisib
  log2 fold change: inactive: 0.036
crizotinib
  log2 fold change: inactive: -0.009
[4]
  log2 fold change: inactive: -0.061
gandotinib
  log2 fold change: inactive: 0.053
tozasertib
  log2 fold change: inactive: 0.143
doramapimod
  log2 fold change: inactive: -0.044
bafetinib
  log2 fold change: inactive: -0.138
[5]
  log2 fold change: inactive: 0.245

## FAM172A (UniProt Q8WUF8)
Tubastatin A
  log2 fold change: inactive: 0.053
[1]
  log2 fold change: inactive: -0.276
defactinib
  log2 fold change: inactive: -0.025
[6]
  log2 fold change: inactive: 0.147
encorafenib
  log2 fold change: inactive: -0.055
[2]
  log2 fold change: inactive: 0.097
alisertib
  log2 fold change: inactive: 0.001
[3]
  log2 fold change: inactive: 0.033
gefitinib
  log2 fold change: inactive: -0.123
lapatinib
  log2 fold change: inactive: 0.014
pictilisib
  log2 fold change: inactive: -0.204
duvelisib
  log2 fold change: inactive: -0.011
tozasertib
  log2 fold change: inactive: -0.13
bafetinib
  log2 fold change: inactive: -0.12

## FAM13A (UniProt O94988)
Tubastatin A
  log2 fold change: inactive: -0.236
[6]
  log2 fold change: inactive: -0.145
crizotinib
  log2 fold change: inactive: -0.064
duvelisib
  log2 fold change: inactive: 0.18
doramapimod
  log2 fold change: inactive: -0.018

## EXO5 (UniProt Q9H790)
Tubastatin A
  log2 fold change: inactive: 0.018
[1]
  log2 fold change: inactive: 0.068
pictilisib
  log2 fold change: active: -0.43
crizotinib
  log2 fold change: inactive: -0.113
doramapimod
  log2 fold change: inactive: 0.061
bafetinib
  log2 fold change: inactive: -0.261

## FAM49B, A0A1W2PRQ0
Tubastatin A
  log2 fold change: inactive: 0.215
defactinib
  log2 fold change: inactive: 0.02
encorafenib
  log2 fold change: inactive: 0.057
[2]
  log2 fold change: inactive: -0.285
pictilisib
  log2 fold change: inactive: -0.101
tozasertib
  log2 fold change: inactive: -0.102
bafetinib
  log2 fold change: inactive: -0.135

## FAM193B (UniProt Q96PV7)
alvocidib
  log2 fold change: inactive: -0.11
[1]
  log2 fold change: inactive: 0.108
defactinib
  log2 fold change: inactive: 0.018
[3]
  log2 fold change: inactive: -0.042
lapatinib
  log2 fold change: inactive: 0.126
crizotinib
  log2 fold change: inactive: -0.047
[4]
  log2 fold change: inactive: -0.176
gandotinib
  log2 fold change: inactive: 0.021
doramapimod
  log2 fold change: inactive: 0.072
[5]
  log2 fold change: inactive: 0.266

## FAAP20 isoform 2 (UniProt Q6NZ36)
alvocidib
  log2 fold change: inactive: 0.02
crizotinib
  log2 fold change: inactive: -0.063
[4]
  log2 fold change: inactive: 0.017
gandotinib
  log2 fold change: inactive: -0.048
doramapimod
  log2 fold change: inactive: -0.064
[5]
  log2 fold change: inactive: -0.02

## EVI5L isoform 2 (UniProt Q96CN4)
alvocidib
  log2 fold change: inactive: -0.293
[4]
  log2 fold change: inactive: 0.022
gandotinib
  log2 fold change: inactive: 0.062
[5]
  log2 fold change: inactive: 0.049

## FAM174C (UniProt Q9BVV8)
alvocidib
  log2 fold change: inactive: -0.174
[1]
  log2 fold change: inactive: 0.244
alisertib
  log2 fold change: inactive: -0.157
[3]
  log2 fold change: inactive: -0.19
gefitinib
  log2 fold change: inactive: -0.169
lapatinib
  log2 fold change: inactive: -0.142
[4]
  log2 fold change: inactive: -0.154
gandotinib
  log2 fold change: inactive: 0.286
[5]
  log2 fold change: inactive: 0.018

## EURL (UniProt Q9NYK6)
alvocidib
  log2 fold change: inactive: -0.031
[1]
  log2 fold change: inactive: 0.12
[6]
  log2 fold change: inactive: 0.074
[3]
  log2 fold change: inactive: -0.075
lapatinib
  log2 fold change: inactive: 0.172
[4]
  log2 fold change: inactive: 0.099
duvelisib
  log2 fold change: inactive: -0.062
gandotinib
  log2 fold change: inactive: 0.035
[5]
  log2 fold change: inactive: 0.014

## EVI2B isoform 2 (UniProt P34910)
alvocidib
  log2 fold change: inactive: -0.073
[4]
  log2 fold change: inactive: 0.043
gandotinib
  log2 fold change: inactive: 0.097
[5]
  log2 fold change: inactive: -0.005

## FAM219B (UniProt Q5XKK7)
alvocidib
  log2 fold change: inactive: -0.051
pictilisib
  log2 fold change: inactive: 0.137
crizotinib
  log2 fold change: inactive: -0.15
[4]
  log2 fold change: inactive: 0.113
gandotinib
  log2 fold change: inactive: -0.14
doramapimod
  log2 fold change: inactive: -0.02
bafetinib
  log2 fold change: inactive: -0.074
[5]
  log2 fold change: inactive: -0.041

## F2 (UniProt P00734)
Tubastatin A
  log2 fold change: inactive: -0.108
encorafenib
  log2 fold change: inactive: 0.04
[2]
  log2 fold change: inactive: -0.006
[3]
  log2 fold change: inactive: -0.006
lapatinib
  log2 fold change: inactive: -0.012
pictilisib
  log2 fold change: inactive: 0.084
tozasertib
  log2 fold change: inactive: -0.078
bafetinib
  log2 fold change: inactive: -0.004

## ESPN (UniProt B1AK53)
Tubastatin A
  log2 fold change: inactive: 0.078
[6]
  log2 fold change: inactive: 0.278
encorafenib
  log2 fold change: inactive: 0.062
[2]
  log2 fold change: inactive: 0.033
duvelisib
  log2 fold change: inactive: -0.114
tozasertib
  log2 fold change: inactive: -0.1

## FAM234B (UniProt A2RU67)
Tubastatin A
  log2 fold change: inactive: -0.028
[3]
  log2 fold change: inactive: 0.131
lapatinib
  log2 fold change: inactive: -0.032

## EXD2 (UniProt Q9NVH0)
Tubastatin A
  log2 fold change: inactive: -0.186
[1]
  log2 fold change: inactive: 0.141
defactinib
  log2 fold change: inactive: -0.018
[6]
  log2 fold change: inactive: 0.168
crizotinib
  log2 fold change: inactive: -0.012
duvelisib
  log2 fold change: inactive: 0.068
doramapimod
  log2 fold change: inactive: -0.11

## F2R (UniProt P25116)
alvocidib
  log2 fold change: inactive: -0.063
crizotinib
  log2 fold change: inactive: -0.025
[4]
  log2 fold change: inactive: 0.081
gandotinib
  log2 fold change: inactive: -0.044
doramapimod
  log2 fold change: inactive: -0.018
[5]
  log2 fold change: inactive: -0.031

## FAM110A (UniProt Q9BQ89)
alvocidib
  log2 fold change: inactive: 0.008
[1]
  log2 fold change: inactive: -0.282
[3]
  log2 fold change: inactive: -0.099
lapatinib
  log2 fold change: inactive: 0.136
pictilisib
  log2 fold change: inactive: 0
crizotinib
  log2 fold change: inactive: 0.056
[4]
  log2 fold change: inactive: -0.099
gandotinib
  log2 fold change: inactive: 0.041
doramapimod
  log2 fold change: inactive: -0.173
bafetinib
  log2 fold change: inactive: 0.066
[5]
  log2 fold change: inactive: -0.127

## FAM111A (UniProt Q96PZ2)
Tubastatin A
  log2 fold change: inactive: -0.083
[1]
  log2 fold change: inactive: 0.022
defactinib
  log2 fold change: inactive: 0.053
[6]
  log2 fold change: inactive: -0.119
encorafenib
  log2 fold change: inactive: -0.074
[2]
  log2 fold change: inactive: -0.11
[3]
  log2 fold change: inactive: -0.091
lapatinib
  log2 fold change: inactive: 0.223
crizotinib
  log2 fold change: inactive: -0.01
duvelisib
  log2 fold change: inactive: 0.03
tozasertib
  log2 fold change: inactive: -0.02
doramapimod
  log2 fold change: inactive: -0.163

## FAM171A1 (UniProt Q5VUB5)
Tubastatin A
  log2 fold change: inactive: -0.139
[1]
  log2 fold change: inactive: -0.089
[6]
  log2 fold change: inactive: -0.026
[3]
  log2 fold change: inactive: 0.161
lapatinib
  log2 fold change: inactive: -0.221
duvelisib
  log2 fold change: inactive: -0.006

## ETV3 (UniProt P41162)
Tubastatin A
  log2 fold change: inactive: -0.034
encorafenib
  log2 fold change: inactive: 0.061
[2]
  log2 fold change: inactive: 0.159
tozasertib
  log2 fold change: inactive: -0.051

## ETV1 (UniProt P50549)
Tubastatin A
  log2 fold change: inactive: -0.076
[1]
  log2 fold change: inactive: 0.356
[6]
  log2 fold change: inactive: -0.065
alisertib
  log2 fold change: inactive: -0.088
gefitinib
  log2 fold change: inactive: 0.243
duvelisib
  log2 fold change: inactive: 0.012

## FAM199X (UniProt Q6PEV8)
crizotinib
  log2 fold change: inactive: -0.054
doramapimod
  log2 fold change: inactive: -0.138

## ETAA1 (UniProt Q9NY74)
[1]
  log2 fold change: inactive: 0.054
defactinib
  log2 fold change: inactive: 0.191
encorafenib
  log2 fold change: inactive: 0.239
[2]
  log2 fold change: inactive: -0.159
tozasertib
  log2 fold change: inactive: 0.034

## EXOC6B (UniProt Q9Y2D4)
defactinib
  log2 fold change: inactive: -0.049
encorafenib
  log2 fold change: inactive: -0.061
[2]
  log2 fold change: inactive: 0.019
alisertib
  log2 fold change: inactive: -0.002
[3]
  log2 fold change: inactive: 0.01
gefitinib
  log2 fold change: inactive: 0
lapatinib
  log2 fold change: inactive: 0.057
crizotinib
  log2 fold change: inactive: -0.116
tozasertib
  log2 fold change: inactive: -0.06
doramapimod
  log2 fold change: inactive: 0

## FAM122B isoform 2 (UniProt Q7Z309)
Tubastatin A
  log2 fold change: inactive: 0.027
